Out of some 190,000 compounds screened, about 570 (0.3%) were called active. Inconclusive means that the source gave no clear call. Such entries were picked first, then a sample of the others.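 The calls were made as follows: active = z-score above 3 at 5 µM with at least 500 cells counted in the well; inconclusive = wells under 500 cells, flagged as cytotoxic or low count; inactive = the rest.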
Assay: up-regulation of insulin promoter-GFP reporter – imaging, high-content screening, mouse beta cells (AID 1625)
Details: MIN6 insulin promoter-GFP reporter, at 5 µM, stronger effect = higher value
With `Cc1cc(N=NC(=O)c2ccccc2)ccc1O` the z-score was inconclusive: -2.91.
In the case of `CCOC(=O)c1ccc(NC(=O)Cn2ncc(Cl)c(Cl)c2=O)cc1`, the z-score is reported as inconclusive: -3.88.
For `CCOc1ccc(Oc2cc(NC(=O)c3ccco3)cc([N+](=O)[O-])c2)cc1`, the z-score was inconclusive: -2.58.
With `CCN(CC)Cc1c(NC(=O)c2ccccc2)sc(C)c1C` the z-score was inactive: 0.34.
With `Cc1ccc(NC(=O)CN(C)C(=O)Cn2ncc(Cl)c(Cl)c2=O)cc1` the z-score was inconclusive: -2.36.
For `CCn1c(SCC(=O)c2c[nH]c3ccccc23)nc2cc(S(=O)(=O)N3CCOCC3)ccc21`, the z-score was active: 3.09.
In the case of `COc1ccccc1NC(=O)/C=C1\SCC(=O)N1C`, the z-score is reported as active: 4.67.
With `CCC(NC(=O)Nc1ccc(O)cc1)(C(F)(F)F)C(F)(F)F` the z-score was inconclusive: -0.23.
With `FC(F)(F)c1cccc(Cn2c3[n+](c4ccc(C(F)(F)F)cc42)CCCCC3)c1` the z-score was inactive: -2.45.
For `Cc1ccc(-c2cc[n+](Cc3ccccc3)cc2)cc1`, the z-score was inconclusive: -2.34.
For `CC1CN(C(=O)CCn2c(=O)oc3ccccc32)CC(C)O1` (configuration not stated), the z-score was active: 8.04.
For `c1ccc(-n2ncc3c(N4CCN(c5ccccn5)CC4)nc(N4CCCCCC4)nc32)cc1`, the z-score was active: 4.11.
In the case of `O=c1oc2cc(OCc3ccc(F)cc3F)ccc2cc1-c1ccc2ccccc2n1`, the z-score is reported as inactive: 0.
For `Cn1c(C(=O)N2CCC(C(=O)N3CCN(Cc4ccc5c(c4)OCO5)CC3)CC2)cc2sccc21`, the z-score was active: 4.67.
With `CN(c1cccc(Cl)c1)S(=O)(=O)c1cccc(C(=O)NC2=NCCS2)c1` the z-score was active: 3.48.
For `Cc1ccc(-n2c(O)c(/C=N/NC(=O)C3COc4ccccc4O3)c3ccccc3c2=O)cc1` (configuration not stated), the z-score was active: 3.14.
For `COc1c(CC=C(C)C)cc(C2CC(=O)c3c(O)cc(O)cc3O2)cc1CC=C(C)C` (configuration not stated), the z-score was inconclusive: -4.91.
With `CCCNC(=O)c1ccc2c(=O)c(O)c(-c3cccc(Br)c3)[nH]c2c1` the z-score was inconclusive: -4.78.
For `O=C(NCc1cccs1)c1ccc(N2CCCCC2)nc1`, the z-score was active: 3.41.
In the case of `CCOC(=O)C1CCCN(c2nc(C)nc3c2oc2ccccc23)C1` (configuration not stated), the z-score is reported as inconclusive: -6.11.
With `CCCn1c(SCC(=O)NC2CCCCC2)nnc1-c1ccncc1` the z-score was active: 3.06.
In the case of `Cc1cccc[n+]1CC(=O)/C=C1\N(C)c2ccccc2C1(C)C`, the z-score is reported as inconclusive: -1.46.
With `CCCNS(=O)(=O)c1ccc(CCC(=O)Nc2cc(Cl)ccc2Oc2ccccc2)cc1` the z-score was inactive: -1.15.
With `CC1CCCC(NC(=O)C2CCCN2S(=O)(=O)c2cccc3nsnc23)C1C` (configuration not stated) the z-score was inconclusive: -2.87.
For `CN(C)c1ccc(/C=C/c2ccc3ccccc3[n+]2C)cc1`, the z-score was inconclusive: -3.09.
In the case of `O=C1c2cccc3c(N4CCCCC4)ccc(c23)C(=O)N1c1ccc(O)cc1`, the z-score is reported as active: 6.1.
For `CCN(CC)c1ccc(/C=N/NC(=O)c2cccc(S(=O)(=O)Nc3ccccc3OC)c2)c(O)c1`, the z-score was inconclusive: -3.68.
For `CCCN1C(=O)/C(=C/c2c(NCCCOCC)nc3c(C)cccn3c2=O)SC1=S`, the z-score was active: 5.71.
With `CCOC(=O)CC1C(=O)NCCN1c1nc2c(C)cccn2c(=O)c1/C=C1\SC(=S)N(CC(C)C)C1=O` (configuration not stated) the z-score was active: 16.9.
With `O=C(NNC(=O)C1CCN(S(=O)(=O)c2ccc(Cl)cc2)CC1)c1ccccc1` the z-score was inactive: 0.43.
In the case of `COc1ccc(-c2cn(-c3ccc(Cl)cc3)c3[n+]2CCCCC3)cc1`, the z-score is reported as inconclusive: -4.24.
With `CCc1nc(SCC(=O)N2CCOCC2)c2c(=O)n(C)c(=O)n(C)c2n1` the z-score was inconclusive: -5.45.
In the case of `CCN(CC)c1ccc2c(c1)CCCN2`, the z-score is reported as inconclusive: 2.23.
With `Cc1ccc(-n2c(-c3ccccc3)c[n+]3c2CCC3)cc1` the z-score was inconclusive: -5.74.
With `Cc1cc(C)c(NC(=O)c2ccc(S(=O)(=O)N3CCOCC3)cc2)c(C)c1` the z-score was inconclusive: -6.8.
For `CCCOc1ccc(C(=O)C(CCC(CNCC)C(=O)c2ccc(OCCC)cc2)CNCC)cc1` (configuration not stated), the z-score was inconclusive: -1.4.
In the case of `Cc1c(C(C)C)c(=O)n(-c2ccc(S(=O)(=O)NC3CCCCC3)cc2)n1C`, the z-score is reported as inconclusive: -2.41.
With `CCn1c(C)nc2cc(C(=O)OC(C(F)(F)C(F)F)C(F)(F)C(F)F)ccc21` the z-score was inconclusive: -4.4.
With `N#CC1=C(N)C(C#N)(C#N)C(c2cccnc2)C2CC(c3ccccc3)CC=C12` (configuration not stated) the z-score was inactive: -0.48.
In the case of `CCCc1cc(-n2ccnc2)n2c(nc3ccccc32)c1C#N`, the z-score is reported as active: 5.52.
With `CCc1nnc(NC(=O)C(C)Sc2ccccc2)s1` (configuration not stated) the z-score was inconclusive: -2.02.
For `CCOc1ccc(C(=O)/C=C/c2ccc(OC)c(OC)c2)cc1`, the z-score was inactive: -0.28.
For `Fc1ccc(C2NCCn3cccc32)cc1` (configuration not stated), the z-score was active: 3.94.
With `COc1ccc(OCc2n(CC(=O)OC3CC(C)CCC3C(C)C)c3ccccc3[n+]2C)cc1` (configuration not stated) the z-score was inconclusive: -5.47.
With `CCOC(=O)COc1cccc2c(=O)n(CC(=O)NCCc3ccc(OC)c(OC)c3)ccc12` the z-score was active: 3.56.
With `Cn1nc(-c2ccc(Cl)cc2)c2cc(C(=O)N3CCN(c4ccccn4)CC3)sc21` the z-score was inconclusive: -8.26.
With `Cc1ccc(C2CC(C(F)(F)F)n3nc(C(=O)NCc4c(C)nn(C)c4C)c(Cl)c3N2)cc1` (configuration not stated) the z-score was inconclusive: -5.8.
With `O=C(CNC(=O)c1ccc(F)cc1)N/N=C/c1cn[nH]c1-c1ccccc1` the z-score was inconclusive: -1.53.
In the case of `Nc1cccc2c1C(=O)N(C(=O)/C=C/c1ccc(F)cc1)C2=O`, the z-score is reported as inactive: -0.15.
For `CCOC(=O)c1c(NC(=O)CSc2nc3ccccc3s2)sc(C(C)=O)c1C`, the z-score was inconclusive: -1.07.
With `CC(=O)c1cccc(NC(=S)NCCC2=CCCCC2)c1` the z-score was inconclusive: -2.41.
In the case of `O=Nc1c(O)n(Cc2ccc(Cl)cc2)c2ccccc12`, the z-score is reported as active: 3.05.
For `CN(C)c1ccc(/C=C/c2cc[n+](C)cc2)cc1`, the z-score was inconclusive: -1.98.
With `CCS(=O)(=O)N1CCN(Cc2c[nH]c3ccccc23)CC1` the z-score was inactive: -0.21.
For `O=[N+]([O-])c1ccccc1/C=N/N1CCN(c2ccncc2S(=O)(=O)N2CCCCC2)CC1`, the z-score was inactive: -0.48.
For `Cc1cc(N2CCOCC2)nc(NCc2ccccc2)n1`, the z-score was inconclusive: -1.62.
With `O=C(C1c2ccccc2Oc2ccccc21)N1CCN(c2ccc(Cl)cc2)CC1` the z-score was inactive: 0.

Source: PubChem BioAssay AID1625 (Sanford-Burnham Center for Chemical Genomics, 2009)
